Reference: US20170095537A1
Results are given in words; binding and its absence hold for the method and conditions named. Some results given as binding are weak or reduced against the parent protein; the word gives no strength. Each block holds one molecule with its values, some of them ahead of it.

Sequences of proteins named here, by UniProt entry; tags and fusion partners are left off. A change or cut given only in a name is not applied to a line headed by its entry.
UniProt P07204: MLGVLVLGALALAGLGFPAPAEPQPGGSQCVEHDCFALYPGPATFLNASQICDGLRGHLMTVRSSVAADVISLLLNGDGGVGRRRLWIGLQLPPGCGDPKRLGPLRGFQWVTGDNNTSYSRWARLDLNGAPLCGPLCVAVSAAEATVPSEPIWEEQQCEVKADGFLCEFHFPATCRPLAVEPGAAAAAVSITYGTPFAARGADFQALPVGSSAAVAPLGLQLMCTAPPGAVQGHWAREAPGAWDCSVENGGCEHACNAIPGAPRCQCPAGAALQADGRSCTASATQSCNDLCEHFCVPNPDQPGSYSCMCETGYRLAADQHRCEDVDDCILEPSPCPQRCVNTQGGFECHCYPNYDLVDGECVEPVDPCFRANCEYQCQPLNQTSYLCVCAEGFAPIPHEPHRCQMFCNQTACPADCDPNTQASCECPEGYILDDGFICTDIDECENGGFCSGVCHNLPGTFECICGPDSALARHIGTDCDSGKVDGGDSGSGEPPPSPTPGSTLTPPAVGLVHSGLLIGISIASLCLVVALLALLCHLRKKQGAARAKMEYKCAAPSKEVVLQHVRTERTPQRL

Tests used:
[1] = molecular target: T1, recombinant CD14 (R&D Systems) (Homo sapiens) (UniProt P08571); experiment: FIG. 2A solid phase binding assay with prTMD23
T1 sequence: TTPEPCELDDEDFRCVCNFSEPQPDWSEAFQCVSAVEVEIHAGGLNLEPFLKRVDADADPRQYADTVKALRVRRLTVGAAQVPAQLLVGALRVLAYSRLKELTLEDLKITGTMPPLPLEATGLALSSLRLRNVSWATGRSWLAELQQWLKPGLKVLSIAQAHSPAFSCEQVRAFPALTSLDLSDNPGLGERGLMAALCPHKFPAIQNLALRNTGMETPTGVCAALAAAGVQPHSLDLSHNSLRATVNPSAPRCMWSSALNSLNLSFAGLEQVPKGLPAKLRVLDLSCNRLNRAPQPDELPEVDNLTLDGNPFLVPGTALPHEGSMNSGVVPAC

[2] = molecular target: T1, recombinant CD14 (R&D Systems) (Homo sapiens); experiment: summary of the filing's binding experiments; assay not given
[3] = molecular target: T1, recombinant CD14 (R&D Systems) (Homo sapiens); experiment: solid phase binding assay: rCD14 mixed with the TM protein, captured on anti-human CD14 antibody, detected with anti-c-Myc antibody
[4] = molecular target: T1, recombinant CD14 (R&D Systems) (Homo sapiens); experiment: solid phase binding assay: rCD14 (100 nM) pre-incubated with prTMD23, captured on immobilized mouse anti-human CD14 antibody, detected with biotinylated anti-c-Myc antibody and streptavidin-HRP/TMB
[5] = molecular target: T1, recombinant CD14 (R&D Systems) (Homo sapiens); experiment: FIG. 2B SPR with mrTMD23 (per methods)
[6] = molecular target: T1, recombinant CD14 (R&D Systems) (Homo sapiens); experiment: solid phase binding assay: rCD14 (100 nM) pre-incubated with prTMD23 I442A, captured on immobilized mouse anti-human CD14 antibody, detected with biotinylated anti-c-Myc antibody and streptavidin-HRP/TMB
[7] = molecular target: recombinant mammalian-expressed rTMD23 (recombinant human thrombomodulin domain 2 plus domain 3, Ala242-Ser515) (Homo sapiens) (UniProt P07204); experiment: surface plasmon resonance (BIAcore 3000), mrTMD23 immobilized on NTA sensor chip, rCD14 passed over in HBS-P buffer

binding [3]: binds
binding [6]: binds
Molecule: Pichia-expressed recombinant TMD23^1442A (mutant rTMD23 that cannot activate protein C) (from UniProt P07204 242-515)

binding [7]: binds
B1: recombinant CD14 (R&D Systems) (receptor)
chain: TTPEPCELDDEDFRCVCNFSEPQPDWSEAFQCVSAVEVEIHAGGLNLEPFLKRVDADADPRQYADTVKALRVRRLTVGAAQVPAQLLVGALRVLAYSRLKELTLEDLKITGTMPPLPLEATGLALSSLRLRNVSWATGRSWLAELQQWLKPGLKVLSIAQAHSPAFSCEQVRAFPALTSLDLSDNPGLGERGLMAALCPHKFPAIQNLALRNTGMETPTGVCAALAAAGVQPHSLDLSHNSLRATVNPSAPRCMWSSALNSLNLSFAGLEQVPKGLPAKLRVLDLSCNRLNRAPQPDELPEVDNLTLDGNPFLVPGTALPHEGSMNSGVVPAC

The next lines start with the molecule.

Molecule: Pichia-expressed rTMD23 (recombinant human thrombomodulin domain 2 plus domain 3, Ala242-Ser515) (from UniProt P07204 242-515)
binding [1]: binds
binding [2]: binds
binding [3]: binds
binding [4]: binds

Molecule: recombinant mammalian-expressed rTMD23 (recombinant human thrombomodulin domain 2 plus domain 3, Ala242-Ser515) (from UniProt P07204 242-515)
binding [5]: binds
binding [2]: binds
